{"source": "patent US20260053773A1", "about": "“PHARMACEUTICAL COMPOSITION AND USE THEREOF” (AUHUI TONGOO PHARMACEUTICAL TECHNOLOGY CO., LTD., priority 2022, published 2026)", "note": "Some entries repeat one wording, which the source may state once for all of them."}
{"assay": "Inhibition of COM crystal growth in three growth directions, inhibitors alone and in combination pairs", "method": "Different concentrations of citric acid (CA) and ellagic acid (EA) were added to 25 ml of deionized water, the supersaturation of the solution was controlled at S=2.4, and the growth process of the crystal was monitored.\nThe hollow symbols in the figure represent the concentration required for a single inhibitor to achieve a certain effect, and the same solid symbols represent the concentration required for a combination of the inhibitors to achieve the same effect.\nDifferent concentrations of citric acid (CA) and gallic acid (GaA) were added to 25 ml of deionized water, and the growth process of the crystal was monitored.\nDifferent concentrations of citric acid (CA) and pyrogallol (PGA) were added to 25 ml of deionized water, and the growth process of the crystal was monitored.\nDifferent concentrations of citric acid (CA) and protocatechuic acid (PrA) were added to 25 ml of deionized water, and the growth process of the crystal was monitored.\nComparative Example 1 differed from Example 1 merely in that ellagic acid was replaced with albumin, and the other preparation methods were the same as those in Example 1.\nComparative Example 2 differed from Example 1 merely in that ellagic acid was replaced with o-hydroxybenzoic acid, and the other preparation methods were the same as those in Example 1.\nDifferent concentrations of hydroxycitric acid (HCA) and ellagic acid (EA) were added to 25 ml of deionized water, supersaturation of the solution was controlled at S=2.4, and the growth process of the crystal was monitored.\nDifferent concentrations of hydroxycitric acid (HCA) and gallic acid (GaA) were added to 25 ml of deionized water, and the growth process of the crystal was monitored.\nDifferent concentrations of potassium citrate (KCA) and ellagic acid (EA) were added to 25 ml of deionized water, the supersaturation of the solution was controlled at S=2.4, and the growth process of the crystal was monitored.\nDifferent concentrations of potassium citrate (KCA) and gallic acid (GaA) were added to 25 ml of deionized water, and the growth process of the crystal was monitored."}
{"smiles": "O=c1oc2c(O)c(O)cc3c(=O)oc4c(O)c(O)cc1c4c23", "note": "[EA, ellagic acid]", "mechanism in inhibiting the growth of COM crystals": "combination mechanism of step pinning and kink blocking"}
{"smiles": "Oc1cccc(O)c1O", "note": "[PGA, pyrogallol]", "mechanism in inhibiting the growth of COM crystals": "combination mechanism of step pinning and kink blocking"}
{"smiles": "O=C(O)c1cc(O)c(O)c(O)c1", "note": "[GaA, gallic acid]", "mechanism in inhibiting the growth of COM crystals": "only step pinning"}
{"smiles": "O=C(O)c1ccc(O)c(O)c1", "note": "[PrA, protocatechuic acid]", "mechanism in inhibiting the growth of COM crystals": "kink blocking"}
{"smiles": "O=C(O)CC(O)(CC(=O)O)C(=O)O", "note": "[CA, citric acid]", "mechanism in inhibiting the growth of COM crystals": "combination mechanism of step pinning and kink blocking"}
